This is an account of results in patent US20150038668A1, “Branched Polyesters Based On Citric Acid, Their Preparation And Use” (BASF SE, priority 2010, published 2015).

The data set is described as follows: physchem. The conditions noted are these: thermodynamic from solid. As to the method: To increase the solubility of the low-solubility active ingredients, 40 ml of a 15% polymer solution (in DI water) were prepared. […] If the added active ingredient dissolved, further active ingredient was added, to supersaturation, followed by stirring for a further 72 hours. The resulting suspension was filtered through a 0.45 μm membrane filter and the dissolved fraction of active ingredient was determined by means of UV/Vis spectroscopy. The same method was also carried for the active ingredients alone, in order to determine the solubility of the pure active ingredient and to be able to determine the improvement through salt formation. For comparison, the solubility in 0.1 normal HCl as well was ascertained, representing the solubility of the hydrochloride salt of the corresponding base.

Converted amounts (≈) assume the structure as drawn. A value given as a limit tells only on which side of the number the result lay.

One may read the thermodynamic solubility as the concentration in solution at equilibrium with solid. With `C(=C\c1ccccc1)/CN1CCN(C(c2ccccc2)c2ccccc2)CC1` [Cinnarizine, cinnarizine], the thermodynamic solubility at 72 h reads like this: (simulated gastric fluid) 1740 µg/mL (≈ 4.72 mM); (water) < 10 µg/mL.
